Drawing on publication PMC3422239, this text covers binding for one substance.

Results are given in words; binding and its absence hold for the method and conditions named. Tags and fused reporters may be left off the sequences shown.

Assay [1] addresses T1, GFP-IRS2-1-300 (mouse) (UniProt P81122).
T1 sequence: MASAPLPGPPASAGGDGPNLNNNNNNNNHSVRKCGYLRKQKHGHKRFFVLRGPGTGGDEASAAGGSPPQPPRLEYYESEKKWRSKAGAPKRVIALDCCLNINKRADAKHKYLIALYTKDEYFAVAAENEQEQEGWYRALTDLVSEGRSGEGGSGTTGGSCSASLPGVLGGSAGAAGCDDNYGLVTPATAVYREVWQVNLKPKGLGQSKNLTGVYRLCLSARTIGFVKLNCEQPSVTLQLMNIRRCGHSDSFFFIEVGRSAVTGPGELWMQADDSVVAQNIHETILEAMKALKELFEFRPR
Description: far-Western, overlay or dot blot; GFP-tagged IRS-2 pulled down with GFP-Trap from HEK293 or Flp-In HEK293 lysates, SDS-PAGE, nitrocellulose; membrane incubated overnight at 4°C with 14-3-3ζ-HRP, ECL; cells serum starved, IGF-1, or PI-103, wortmannin or Akti-1/2 before IGF-1; both purified.

The target of assay [2] is T2, GFP-IRS2-S573A (mouse) (UniProt P81122).
T2 sequence: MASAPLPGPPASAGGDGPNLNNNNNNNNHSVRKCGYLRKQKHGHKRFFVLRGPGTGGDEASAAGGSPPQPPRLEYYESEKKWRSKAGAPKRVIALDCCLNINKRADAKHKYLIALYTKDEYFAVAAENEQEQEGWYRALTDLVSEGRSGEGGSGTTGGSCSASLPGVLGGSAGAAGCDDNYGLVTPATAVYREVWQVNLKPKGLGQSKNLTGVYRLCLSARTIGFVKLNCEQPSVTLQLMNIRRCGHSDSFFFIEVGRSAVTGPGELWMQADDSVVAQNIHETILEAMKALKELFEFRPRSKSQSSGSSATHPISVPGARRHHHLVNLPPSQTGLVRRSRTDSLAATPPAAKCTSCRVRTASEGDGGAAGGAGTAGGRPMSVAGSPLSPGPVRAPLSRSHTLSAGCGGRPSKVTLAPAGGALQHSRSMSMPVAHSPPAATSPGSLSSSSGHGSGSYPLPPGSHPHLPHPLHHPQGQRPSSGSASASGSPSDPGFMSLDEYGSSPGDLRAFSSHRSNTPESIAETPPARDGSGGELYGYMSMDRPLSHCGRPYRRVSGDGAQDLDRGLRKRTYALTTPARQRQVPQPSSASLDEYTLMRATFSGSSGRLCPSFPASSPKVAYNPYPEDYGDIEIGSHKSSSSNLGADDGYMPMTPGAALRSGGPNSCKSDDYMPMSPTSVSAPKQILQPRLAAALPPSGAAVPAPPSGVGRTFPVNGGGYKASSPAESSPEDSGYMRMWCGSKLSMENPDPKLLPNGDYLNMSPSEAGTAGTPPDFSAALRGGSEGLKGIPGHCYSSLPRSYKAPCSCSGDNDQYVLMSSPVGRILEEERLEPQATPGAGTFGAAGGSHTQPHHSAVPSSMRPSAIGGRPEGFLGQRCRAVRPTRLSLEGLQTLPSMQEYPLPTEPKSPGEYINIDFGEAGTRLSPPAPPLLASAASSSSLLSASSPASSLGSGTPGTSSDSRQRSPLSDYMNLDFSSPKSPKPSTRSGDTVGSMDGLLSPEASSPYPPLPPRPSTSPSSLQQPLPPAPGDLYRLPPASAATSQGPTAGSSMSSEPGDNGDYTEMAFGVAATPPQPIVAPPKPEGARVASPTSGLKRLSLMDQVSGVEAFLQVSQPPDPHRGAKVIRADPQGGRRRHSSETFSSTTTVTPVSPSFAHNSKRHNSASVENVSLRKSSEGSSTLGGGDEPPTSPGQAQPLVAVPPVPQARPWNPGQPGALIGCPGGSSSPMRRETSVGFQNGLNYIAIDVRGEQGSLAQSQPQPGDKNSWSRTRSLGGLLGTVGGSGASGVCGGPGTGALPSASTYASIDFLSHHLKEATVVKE
Described as above.

Turning to Recombinant human 14-3-3ζ-HRP, the binding result in assay [1] and in assay [2] was “no binding” each time.
